Earlier results as cited in patent US20170198318A1, “METHOD OF MANUFACTURING METHOXY-ISOFLAVONES BY BIOTRANSFORMATION AND USE THEREOF” (NATIONAL UNIVERSITY OF TAINAN, priority 2016, published 2017).
For at least one compound, name, drawing or mass did not settle the structure.

Tested on: melanogenesis
Details: relative to daidzein; cited from earlier work

COc1ccc(-c2coc3cc(O)ccc3c2=O)cc1 [4′-methoxydaidzein]
anti-melanogenesis activity compared to that of daidzein: 10 fold
